Test results reported in the supplement of paper PMC10849652.
The other results are listed elsewhere or left out.

The chains behind the UniProt entries cited, without tags or fusion partners. Where a name states a change or a piece, a line headed by the entry shows the natural chain unless it says otherwise.
UniProt Q13619, whole entry, looked up: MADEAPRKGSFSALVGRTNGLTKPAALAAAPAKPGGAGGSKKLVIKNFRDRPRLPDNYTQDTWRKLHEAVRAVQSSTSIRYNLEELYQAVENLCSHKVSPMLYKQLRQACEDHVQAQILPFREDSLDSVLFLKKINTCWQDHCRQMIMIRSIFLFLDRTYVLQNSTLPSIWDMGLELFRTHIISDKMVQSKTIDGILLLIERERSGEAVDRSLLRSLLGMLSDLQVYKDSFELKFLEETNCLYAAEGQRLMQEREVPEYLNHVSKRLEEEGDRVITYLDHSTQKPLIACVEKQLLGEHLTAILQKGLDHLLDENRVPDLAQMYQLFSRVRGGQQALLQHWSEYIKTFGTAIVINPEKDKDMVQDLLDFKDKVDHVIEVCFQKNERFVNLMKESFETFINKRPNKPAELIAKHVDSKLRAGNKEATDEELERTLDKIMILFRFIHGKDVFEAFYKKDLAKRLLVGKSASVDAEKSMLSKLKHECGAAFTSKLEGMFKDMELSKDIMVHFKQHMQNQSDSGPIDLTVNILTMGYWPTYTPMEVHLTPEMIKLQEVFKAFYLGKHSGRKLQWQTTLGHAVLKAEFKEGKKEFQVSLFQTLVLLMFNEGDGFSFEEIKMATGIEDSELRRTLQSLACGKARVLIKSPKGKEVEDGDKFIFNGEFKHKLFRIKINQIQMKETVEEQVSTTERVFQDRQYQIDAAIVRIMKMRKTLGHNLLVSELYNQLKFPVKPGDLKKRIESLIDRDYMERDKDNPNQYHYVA
UniProt P27707: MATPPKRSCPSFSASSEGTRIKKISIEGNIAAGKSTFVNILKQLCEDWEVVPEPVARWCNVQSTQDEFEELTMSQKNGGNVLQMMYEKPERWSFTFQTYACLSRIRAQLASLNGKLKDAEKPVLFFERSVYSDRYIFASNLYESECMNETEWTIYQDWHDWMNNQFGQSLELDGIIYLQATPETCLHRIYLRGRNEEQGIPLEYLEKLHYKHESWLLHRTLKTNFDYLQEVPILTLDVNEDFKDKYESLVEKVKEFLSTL
UniProt P32321: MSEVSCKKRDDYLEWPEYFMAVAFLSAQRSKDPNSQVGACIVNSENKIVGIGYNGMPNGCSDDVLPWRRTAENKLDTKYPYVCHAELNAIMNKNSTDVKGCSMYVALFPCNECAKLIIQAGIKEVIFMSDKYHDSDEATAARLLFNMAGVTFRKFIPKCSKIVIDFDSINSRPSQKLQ
UniProt Q9P013: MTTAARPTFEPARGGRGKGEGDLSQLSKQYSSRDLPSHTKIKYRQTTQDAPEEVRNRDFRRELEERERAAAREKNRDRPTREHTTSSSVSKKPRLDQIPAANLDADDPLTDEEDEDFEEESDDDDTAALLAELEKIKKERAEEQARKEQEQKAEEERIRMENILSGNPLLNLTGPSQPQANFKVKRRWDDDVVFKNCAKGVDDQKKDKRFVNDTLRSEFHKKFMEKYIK
UniProt Q9Y4B6: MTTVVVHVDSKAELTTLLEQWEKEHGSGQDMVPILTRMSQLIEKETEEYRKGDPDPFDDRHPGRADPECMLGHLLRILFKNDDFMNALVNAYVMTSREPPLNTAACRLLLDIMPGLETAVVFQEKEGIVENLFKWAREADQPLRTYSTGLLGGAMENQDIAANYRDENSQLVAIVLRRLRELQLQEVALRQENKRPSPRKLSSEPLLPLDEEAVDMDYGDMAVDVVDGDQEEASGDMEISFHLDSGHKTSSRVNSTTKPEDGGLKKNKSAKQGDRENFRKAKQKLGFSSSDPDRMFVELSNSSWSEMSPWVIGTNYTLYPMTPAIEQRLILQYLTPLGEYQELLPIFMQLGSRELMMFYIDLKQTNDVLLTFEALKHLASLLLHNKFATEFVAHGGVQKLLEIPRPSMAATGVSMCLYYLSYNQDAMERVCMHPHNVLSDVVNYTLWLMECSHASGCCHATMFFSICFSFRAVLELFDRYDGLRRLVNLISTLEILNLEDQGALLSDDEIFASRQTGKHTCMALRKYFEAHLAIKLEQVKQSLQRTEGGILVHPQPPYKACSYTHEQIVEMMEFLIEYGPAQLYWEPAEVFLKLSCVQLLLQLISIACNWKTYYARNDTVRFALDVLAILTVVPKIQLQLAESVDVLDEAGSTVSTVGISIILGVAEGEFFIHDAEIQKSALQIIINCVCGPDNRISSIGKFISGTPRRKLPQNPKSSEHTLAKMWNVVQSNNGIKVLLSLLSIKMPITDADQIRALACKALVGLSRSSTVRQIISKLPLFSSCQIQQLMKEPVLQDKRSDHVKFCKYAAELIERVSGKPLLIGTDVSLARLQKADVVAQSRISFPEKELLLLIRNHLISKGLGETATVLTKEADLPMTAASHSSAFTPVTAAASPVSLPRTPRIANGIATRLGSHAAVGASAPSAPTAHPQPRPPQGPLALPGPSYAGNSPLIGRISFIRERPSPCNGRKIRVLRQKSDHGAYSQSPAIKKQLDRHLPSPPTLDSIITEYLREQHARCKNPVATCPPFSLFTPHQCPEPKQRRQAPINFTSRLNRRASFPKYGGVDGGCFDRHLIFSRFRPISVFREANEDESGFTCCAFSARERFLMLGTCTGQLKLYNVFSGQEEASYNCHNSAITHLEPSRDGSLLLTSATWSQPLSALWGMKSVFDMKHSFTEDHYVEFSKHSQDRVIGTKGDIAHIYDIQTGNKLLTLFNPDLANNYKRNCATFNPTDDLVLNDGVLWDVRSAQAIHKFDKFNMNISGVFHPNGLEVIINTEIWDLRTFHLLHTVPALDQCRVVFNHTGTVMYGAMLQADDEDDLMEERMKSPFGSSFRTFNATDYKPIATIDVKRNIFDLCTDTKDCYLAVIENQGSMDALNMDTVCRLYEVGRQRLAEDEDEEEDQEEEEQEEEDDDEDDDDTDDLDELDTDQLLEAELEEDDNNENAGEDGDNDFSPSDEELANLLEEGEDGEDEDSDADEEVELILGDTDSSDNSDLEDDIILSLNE
UniProt Q5TAQ9: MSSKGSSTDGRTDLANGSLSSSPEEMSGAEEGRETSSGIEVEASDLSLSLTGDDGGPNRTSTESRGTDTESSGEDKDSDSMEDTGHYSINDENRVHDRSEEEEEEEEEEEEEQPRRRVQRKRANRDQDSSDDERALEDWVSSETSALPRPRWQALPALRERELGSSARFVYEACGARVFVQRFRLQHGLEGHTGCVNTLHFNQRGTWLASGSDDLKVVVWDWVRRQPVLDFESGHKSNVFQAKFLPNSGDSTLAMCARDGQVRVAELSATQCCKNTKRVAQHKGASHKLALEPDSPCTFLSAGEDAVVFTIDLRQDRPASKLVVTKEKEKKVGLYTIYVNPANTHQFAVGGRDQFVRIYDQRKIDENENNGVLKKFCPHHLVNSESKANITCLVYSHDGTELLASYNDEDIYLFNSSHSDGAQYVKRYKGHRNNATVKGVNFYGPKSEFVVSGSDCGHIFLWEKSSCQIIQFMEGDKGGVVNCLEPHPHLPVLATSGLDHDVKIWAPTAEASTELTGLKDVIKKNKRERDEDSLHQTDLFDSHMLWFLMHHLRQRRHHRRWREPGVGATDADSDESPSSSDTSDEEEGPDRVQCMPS
UniProt Q9NTM9: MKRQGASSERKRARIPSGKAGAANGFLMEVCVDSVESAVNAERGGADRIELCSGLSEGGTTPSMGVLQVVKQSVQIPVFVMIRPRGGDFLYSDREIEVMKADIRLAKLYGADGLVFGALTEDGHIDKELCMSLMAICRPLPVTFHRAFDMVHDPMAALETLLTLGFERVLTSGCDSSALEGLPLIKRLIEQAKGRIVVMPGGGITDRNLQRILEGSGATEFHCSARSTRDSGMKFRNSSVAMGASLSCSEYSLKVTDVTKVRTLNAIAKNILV
UniProt Q9UJW0, whole entry, looked up: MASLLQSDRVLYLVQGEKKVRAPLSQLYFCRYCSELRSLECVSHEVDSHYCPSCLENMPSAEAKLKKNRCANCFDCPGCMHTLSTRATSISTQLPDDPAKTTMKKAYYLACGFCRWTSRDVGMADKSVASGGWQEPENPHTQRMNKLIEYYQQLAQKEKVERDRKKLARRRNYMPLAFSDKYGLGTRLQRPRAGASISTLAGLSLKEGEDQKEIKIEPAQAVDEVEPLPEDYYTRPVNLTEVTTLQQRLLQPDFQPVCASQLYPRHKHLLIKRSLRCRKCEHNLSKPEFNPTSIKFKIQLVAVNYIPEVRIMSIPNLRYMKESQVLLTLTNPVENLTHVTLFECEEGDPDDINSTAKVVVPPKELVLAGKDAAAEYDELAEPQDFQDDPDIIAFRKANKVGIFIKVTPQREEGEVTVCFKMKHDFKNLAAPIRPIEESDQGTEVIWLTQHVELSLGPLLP
UniProt Q6PI48: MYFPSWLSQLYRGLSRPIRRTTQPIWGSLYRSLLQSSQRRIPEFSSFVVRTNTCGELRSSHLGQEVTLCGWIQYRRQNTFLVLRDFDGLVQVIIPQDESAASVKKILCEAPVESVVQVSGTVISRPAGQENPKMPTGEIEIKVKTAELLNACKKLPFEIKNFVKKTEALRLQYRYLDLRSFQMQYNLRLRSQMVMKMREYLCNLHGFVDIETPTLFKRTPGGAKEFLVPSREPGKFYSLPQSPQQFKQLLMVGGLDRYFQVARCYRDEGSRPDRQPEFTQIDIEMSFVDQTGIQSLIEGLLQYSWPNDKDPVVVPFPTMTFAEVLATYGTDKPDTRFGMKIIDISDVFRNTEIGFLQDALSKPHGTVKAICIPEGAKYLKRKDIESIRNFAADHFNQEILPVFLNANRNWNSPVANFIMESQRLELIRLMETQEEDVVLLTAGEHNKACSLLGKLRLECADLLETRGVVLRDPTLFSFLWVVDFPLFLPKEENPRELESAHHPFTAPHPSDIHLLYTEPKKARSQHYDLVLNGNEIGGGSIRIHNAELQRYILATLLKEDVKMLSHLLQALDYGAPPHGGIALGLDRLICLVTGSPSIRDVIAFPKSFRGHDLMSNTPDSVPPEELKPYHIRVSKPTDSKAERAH
UniProt O00399, whole entry, looked up: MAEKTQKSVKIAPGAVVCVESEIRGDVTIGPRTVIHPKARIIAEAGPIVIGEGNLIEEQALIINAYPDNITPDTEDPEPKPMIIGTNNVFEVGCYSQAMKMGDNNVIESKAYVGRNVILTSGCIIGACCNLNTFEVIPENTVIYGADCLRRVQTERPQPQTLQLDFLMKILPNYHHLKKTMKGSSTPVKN
UniProt Q9NRF8: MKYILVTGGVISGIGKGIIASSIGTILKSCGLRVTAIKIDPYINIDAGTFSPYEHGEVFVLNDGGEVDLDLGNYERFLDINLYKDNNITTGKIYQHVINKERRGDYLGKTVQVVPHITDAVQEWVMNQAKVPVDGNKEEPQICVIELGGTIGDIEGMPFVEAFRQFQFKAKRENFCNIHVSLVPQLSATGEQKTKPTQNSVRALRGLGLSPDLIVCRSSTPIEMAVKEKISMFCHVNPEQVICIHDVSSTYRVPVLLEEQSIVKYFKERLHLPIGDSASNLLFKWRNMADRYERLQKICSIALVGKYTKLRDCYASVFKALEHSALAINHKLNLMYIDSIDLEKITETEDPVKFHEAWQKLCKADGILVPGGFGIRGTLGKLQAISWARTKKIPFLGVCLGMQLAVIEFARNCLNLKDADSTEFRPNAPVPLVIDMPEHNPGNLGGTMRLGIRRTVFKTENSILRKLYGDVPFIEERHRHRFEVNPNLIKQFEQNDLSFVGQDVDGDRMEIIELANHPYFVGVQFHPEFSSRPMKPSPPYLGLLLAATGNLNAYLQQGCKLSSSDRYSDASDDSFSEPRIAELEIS
UniProt Q96C86: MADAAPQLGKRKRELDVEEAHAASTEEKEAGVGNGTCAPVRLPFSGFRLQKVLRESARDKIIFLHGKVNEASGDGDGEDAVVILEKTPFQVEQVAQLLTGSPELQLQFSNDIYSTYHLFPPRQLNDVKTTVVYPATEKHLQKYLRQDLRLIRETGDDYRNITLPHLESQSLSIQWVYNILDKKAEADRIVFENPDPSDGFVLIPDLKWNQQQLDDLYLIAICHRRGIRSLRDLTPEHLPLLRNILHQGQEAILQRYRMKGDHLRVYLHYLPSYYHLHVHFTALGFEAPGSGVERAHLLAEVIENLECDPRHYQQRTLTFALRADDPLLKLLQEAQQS
UniProt P07108: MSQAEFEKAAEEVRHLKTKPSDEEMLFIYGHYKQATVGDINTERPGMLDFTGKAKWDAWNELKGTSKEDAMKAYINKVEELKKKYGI
UniProt Q8TB03: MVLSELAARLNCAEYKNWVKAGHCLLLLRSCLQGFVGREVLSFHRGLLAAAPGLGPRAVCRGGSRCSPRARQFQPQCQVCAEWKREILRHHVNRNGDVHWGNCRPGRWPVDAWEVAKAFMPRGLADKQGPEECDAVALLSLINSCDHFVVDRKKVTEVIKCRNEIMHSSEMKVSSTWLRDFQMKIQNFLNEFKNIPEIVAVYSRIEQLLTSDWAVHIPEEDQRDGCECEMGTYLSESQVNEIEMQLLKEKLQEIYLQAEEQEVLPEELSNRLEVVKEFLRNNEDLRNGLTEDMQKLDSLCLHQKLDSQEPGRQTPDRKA

What was measured:
Assay in all cases: log2 fold change, soluble protein after heating vs DMSO (PISA); higher = thermal stabilisation; K562 cells, 10 uM, 30 min; active = over 0.2 and 3.5 SD of the protein, either way, in both replicates (recomputed)
[1] = compound: CC1=C(C=C(C=C1)NC(=O)C2=CC(=CC=C2)C(C)(C)C#N)NC3=CC4=C(C=C3)N=CN(C4=O)C
How it was run: (§1)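 Aliquots of K562 cells (2×10^6 cells/mL) treated with 10 μM compound for 30 min were heated for 3 min over 48°C-58°C. After pooling and extraction in PBS with 0.5% NP-40 at 4°C, soluble protein from a 21,000xg, 90 min spin was quantified by TMTpro 16plex LC-MS/MS with channel sums equalised. Thermal stability is expressed against control samples, from duplicates, as a log2 fold change.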

[2] = compound: CC1=C(C=C(C=C1)NC(=O)C2=CC(=CC=C2)N(C)C)NC(=O)C3=CC=C(C=C3)O
How it was run: as §1

[3] = compound: CC1=CC=C(C=C1)SC2=C3C=C(SC3=CN=C2)C(=O)N
How it was run: as §1

[4] = compound: CC1=NC(=CC=C1)C2=C(N=C(N2)C(C)(C)C)C3=CC4=NC=CN=C4C=C3
How it was run: as §1

Nexturastat A = compound: CCCCN(Cc1ccc(C(=O)NO)cc1)C(=O)Nc1ccccc1 [Nexturastat A]
How it was run: as §1

vemurafenib = compound: CCCS(=O)(=O)Nc1ccc(F)c(C(=O)c2c[nH]c3ncc(-c4ccc(Cl)cc4)cc23)c1F [vemurafenib]
How it was run: as §1

[5] = compound: CCCS(=O)(=O)Nc1ccc(F)c(C(=O)c2c[nH]c3ncc(Cl)cc23)c1F
How it was run: as §1

[6] = compound: CCCc1cc(C)[nH]c(=O)c1CNC(=O)c1cc(-c2ccnc(N3CCN(C)CC3)c2)cc2c1cnn2C(C)C
How it was run: as §1

givinostat = compound: CCN(CC)Cc1ccc2cc(COC(=O)Nc3ccc(C(=O)NO)cc3)ccc2c1 [givinostat]
How it was run: as §1

barasertib = compound: CCN(CCCOc1ccc2c(Nc3cc(CC(=O)Nc4cccc(F)c4)[nH]n3)ncnc2c1)CCOP(=O)(O)O [barasertib]
How it was run: as §1

[7] = compound: CC[C@@H]1C(=O)N(C)c2cnc(Nc3ccc(C(=O)NC4CCN(C)CC4)cc3OC)nc2N1C1CCCC1
How it was run: as §1

volasertib = compound: CC[C@@H]1C(=O)N(C)c2cnc(Nc3ccc(C(=O)N[C@H]4CC[C@H](N5CCN(CC6CC6)CC5)CC4)cc3OC)nc2N1C(C)C [volasertib]
How it was run: as §1

[8] = compound: CC[C@H](C)N1C=C(C2=C(C=C(C=C21)C3=CN=C(C=C3)N4CCNCC4)C(=O)NCC5=C(C=C(NC5=O)C)C)C
How it was run: as §1

epoxomicin = compound: CC[C@H](C)[C@@H](C(=O)N[C@@H]([C@@H](C)O)C(=O)N[C@@H](CC(C)C)C(=O)[C@]1(CO1)C)NC(=O)[C@H]([C@@H](C)CC)N(C)C(=O)C [epoxomicin]
How it was run: as §1

[9] = compound: CCn1c(C(=O)N(C2CC2)C2CC2)cc2c3c(ncn3C)c(Nc3cc(C)n(C)n3)nc21
How it was run: as §1

[10] = compound: CCn1cc(-c2ccnc3[nH]c(-c4cccc(CN(C)C)c4)cc23)c(-c2ccc(NC(=O)N(C)C)cc2)n1
How it was run: as §1

[11] = compound: CN(C)CC(=O)Nc1ccc2[nH]c(=O)c3ccccc3c2c1
How it was run: as §1

rosiglitazone = compound: CN(CCOC1=CC=C(C=C1)C[C@H]2C(=O)NC(=O)S2)C3=CC=CC=N3 (racemic) [rosiglitazone]
How it was run: as §1

[12] = compound: CN1C2=C(C3=C1C(=O)N(N=C3)CC4=CC(=CC=C4)N)SC(=C2)S(=O)C
How it was run: as §1

[13] = compound: CN1CCC(CNc2ccc3ncc(-c4cccc(OC(F)(F)F)c4)n3n2)CC1
How it was run: as §1

Measured: log2 fold change

CUL4A (UniProt Q13619)
inactive: [1] 0.037 | [2] -0.029 | [3] 0.036 | [4] 0.075 | Nexturastat A -0.017 | vemurafenib -0.001 | [5] 0.061 | [6] -0.029 | givinostat 0.033 | barasertib 0.01 | [7] -0.031 | volasertib -0.152 | [8] 0.017 | epoxomicin 0.015 | [9] -0.013 | [10] -0.032 | [11] 0.009 | rosiglitazone 0.019 | [12] -0.044 | [13] 0

DCK (UniProt P27707)
inactive: [1] 0.055 | [2] 0.005 | [3] 0.007 | [4] 0.025 | Nexturastat A -0.024 | vemurafenib 0.038 | [5] 0.021 | [6] -0.075 | givinostat 0.115 | barasertib 0.004 | [7] 0.023 | volasertib -0.01 | [8] -0.02 | epoxomicin -0.032 | [9] -0.039 | [10] -0.138 | [11] 0.014 | rosiglitazone -0.007 | [12] -0.001 | [13] 0.063

DCTD isoform 2 (UniProt P32321)
inactive: [1] 0 | [2] 0.007 | [3] 0.011 | [4] 0.003 | Nexturastat A -0.02 | vemurafenib 0.041 | [5] 0.013 | [6] -0.044 | givinostat -0.071 | barasertib -0.021 | [7] 0.085 | volasertib 0.027 | [8] -0.023 | epoxomicin -0.026 | [9] 0.024 | [10] -0.026 | [11] -0.004 | rosiglitazone 0.014 | [12] -0.046 | [13] 0

CWC15 (UniProt Q9P013)
inactive: [1] -0.045 | [2] 0.024 | [3] -0.031 | [4] -0.017 | Nexturastat A -0.03 | vemurafenib -0.045 | [5] -0.111 | [6] -0.072 | givinostat -0.004 | barasertib -0.016 | [7] 0.056 | volasertib 0.13 | [8] -0.123 | epoxomicin 0.014 | [9] 0.016 | [10] 0.018 | [11] -0.043 | rosiglitazone -0.008 | [12] 0.009 | [13] -0.041

DCAF1 (UniProt Q9Y4B6)
inactive: [1] 0.012 | [2] 0 | [3] -0.003 | [4] 0.057 | Nexturastat A -0.007 | vemurafenib -0.001 | [5] 0.025 | [6] -0.023 | givinostat 0.012 | barasertib 0.003 | [7] -0.108 | volasertib -0.142 | [8] 0.021 | epoxomicin 0.007 | [9] -0.023 | [10] -0.049 | [11] 0.003 | rosiglitazone 0.043 | [12] -0.045 | [13] -0.109

DCAF8 (UniProt Q5TAQ9)
inactive: [1] -0.076 | [2] -0.018 | [3] 0.051 | [4] 0.013 | Nexturastat A 0.082 | vemurafenib -0.065 | [5] 0.026 | [6] 0.014 | givinostat -0.053 | barasertib 0.042 | [7] -0.014 | volasertib -0.039 | [8] -0.013 | epoxomicin -0.046 | [9] 0.014 | [10] -0.01 | [11] 0.061 | rosiglitazone 0.027 | [12] 0.045 | [13] 0.051

CUTC (UniProt Q9NTM9)
inactive: [1] -0.024 | [2] 0.012 | [3] 0.045 | [4] 0.029 | Nexturastat A -0.035 | vemurafenib -0.017 | [5] -0.035 | [6] -0.059 | givinostat 0.02 | barasertib 0.021 | [7] 0.027 | volasertib 0.013 | [8] -0.026 | epoxomicin 0.023 | [9] 0.001 | [10] -0.029 | [11] -0.016 | rosiglitazone 0.026 | [12] -0.039 | [13] 0.044

DCTN4 (UniProt Q9UJW0)
inactive: [1] -0.057 | [2] -0.033 | [3] -0.033 | [4] -0.004 | Nexturastat A 0.028 | vemurafenib -0.016 | [5] -0.012 | [6] -0.024 | givinostat 0.003 | barasertib 0.016 | [7] 0.012 | volasertib -0.046 | [8] -0.027 | epoxomicin 0.013 | [9] 0.035 | [10] 0.018 | [11] -0.019 | rosiglitazone -0.042 | [12] -0.071 | [13] 0.082

Fetched one by one from the entries so far, two records:
DCAF1 (UniProt Q9Y4B6)
inactive: [1] 0.012 | [2] 0 | [3] -0.003 | [4] 0.057 | Nexturastat A -0.007 | vemurafenib -0.001 | [5] 0.025 | [6] -0.023 | givinostat 0.012 | barasertib 0.003 | [7] -0.108 | volasertib -0.142 | [8] 0.021 | epoxomicin 0.007 | [9] -0.023 | [10] -0.049 | [11] 0.003 | rosiglitazone 0.043 | [12] -0.045 | [13] -0.109

DCAF8 (UniProt Q5TAQ9)
inactive: [1] -0.076 | [2] -0.018 | [3] 0.051 | [4] 0.013 | Nexturastat A 0.082 | vemurafenib -0.065 | [5] 0.026 | [6] 0.014 | givinostat -0.053 | barasertib 0.042 | [7] -0.014 | volasertib -0.039 | [8] -0.013 | epoxomicin -0.046 | [9] 0.014 | [10] -0.01 | [11] 0.061 | rosiglitazone 0.027 | [12] 0.045 | [13] 0.051

Continued.

DARS2 (UniProt Q6PI48)
inactive: [1] 0.001 | [2] 0.018 | [3] -0.015 | [4] 0.016 | Nexturastat A 0.019 | vemurafenib 0.015 | [5] 0.019 | [6] -0.012 | givinostat -0.042 | barasertib -0.028 | [7] 0.064 | volasertib 0.067 | [8] -0.026 | epoxomicin 0.003 | [9] -0.018 | [10] 0.013 | [11] -0.01 | rosiglitazone -0.019 | [12] -0.03 | [13] 0.06

DCTN6 (UniProt O00399)
inactive: [1] -0.068 | [2] -0.098 | [3] -0.03 | [4] 0.025 | Nexturastat A 0.012 | vemurafenib -0.02 | [5] 0.028 | [6] -0.039 | givinostat 0.008 | barasertib 0.015 | [7] 0.044 | volasertib 0.008 | [8] -0.027 | epoxomicin -0.036 | [9] -0.026 | [10] -0.025 | [11] -0.019 | rosiglitazone 0.03 | [12] -0.049 | [13] 0.007

CTPS2 (UniProt Q9NRF8)
inactive: [1] 0.007 | [2] 0.031 | [3] 0.042 | [4] 0.014 | Nexturastat A -0.098 | vemurafenib -0.016 | [5] 0.02 | [6] -0.042 | givinostat -0.009 | barasertib -0.026 | [7] 0.059 | volasertib 0.018 | [8] -0.028 | epoxomicin -0.034 | [9] 0.003 | [10] -0.039 | [11] -0.007 | rosiglitazone 0.02 | [12] -0.049 | [13] -0.012

DCPS (UniProt Q96C86)
inactive: [1] -0.056 | [2] 0.021 | [3] -0.009 | [4] 0.018 | Nexturastat A 0.039 | vemurafenib 0.008 | [5] 0.003 | [6] -0.03 | givinostat 0.008 | barasertib -0.002 | [7] 0.03 | volasertib 0.078 | [8] -0.008 | epoxomicin 0.012 | [9] 0.015 | [10] -0.044 | [11] -0.041 | rosiglitazone 0.008 | [12] -0.039 | [13] 0.022

DBI isoform 5 (UniProt P07108)
inactive: [1] -0.021 | [2] -0.114 | [3] 0.052 | [4] 0.023 | Nexturastat A 0.159 | vemurafenib 0.011 | [5] -0.039 | [6] 0.012 | givinostat 0.012 | barasertib 0.035 | [7] 0.053 | volasertib 0.043 | [8] -0.004 | epoxomicin 0.242 | [9] -0.002 | [10] 0.006 | [11] -0.037 | rosiglitazone -0.052 | [12] -0.029 | [13] -0.015

CYP20A1 (UniProt Q6UW02)
inactive: [1] 0.004 | [2] 0.026 | [3] 0.011 | [4] 0.015 | Nexturastat A -0.118 | vemurafenib 0.017 | [5] 0.006 | [6] -0.023 | givinostat 0.057 | barasertib 0.005 | [7] -0.062 | volasertib -0.107 | [8] 0.014 | epoxomicin 0.002 | [9] -0.026 | [10] 0.005 | [11] -0.009 | rosiglitazone 0.037 | [12] -0.059 | [13] 0.003

CXorf38 (UniProt Q8TB03)
inactive: [1] 0.037 | [2] -0.055 | [3] -0.018 | [4] -0.045 | Nexturastat A 0.001 | vemurafenib -0.008 | [5] 0.011 | [6] 0.009 | givinostat -0.091 | barasertib 0.036 | [7] -0.073 | volasertib -0.1 | [8] -0.032 | epoxomicin 0.065 | [9] 0.025 | [10] -0.069 | [11] -0.008 | rosiglitazone 0 | [12] -0.019 | [13] -0.066

CUL4B (UniProt K4DI93)
inactive: [1] -0.011 | [2] -0.013 | [3] 0.039 | [4] 0.015 | Nexturastat A -0.036 | vemurafenib 0.004 | [5] -0.002 | [6] 0.011 | givinostat -0.004 | barasertib 0.018 | [7] -0.009 | volasertib -0.048 | [8] 0.022 | epoxomicin 0.026 | [9] 0 | [10] -0.009 | [11] -0.005 | rosiglitazone 0 | [12] -0.079 | [13] -0.003
